These are yes or no findings as the source states them, for the method shown.
Assays:
SAF-1 [1] = experiment: BIAcore
SAF-1 [2] = experiment: displacement immunoassay

binding (SAF-1 [1]): no binding
B1: monoclonal antibody 12B1 (antibody, IgG2a, V domains shown)
VH: QIQLQQSGPELVKPGASVKVSCKASGYSFTDYNIYWVKQSHGKSLEWIGYIDPYNDDTGYNQKFKGKATLTVDKSSSTAFMHLNSLTSEDSAVYYCASEGIHWGQGTLVTVS
VL: DIVMTQSQKFMSTSVGDRVSVTCKASQNVGTNVAWFQQKPGQSPKALIYSASYRYNGVPDRFTGSGSGTDFTLTISNVQSEDLADYFCQQYNIYPYTFGGGTKLEIK
notes: also called mAb 12B1; SAF-3 mAb (clone 12B1)
binding (SAF-1 [2]): no binding (tested: max. displacement 5%)

— patent US20060073133A1 (published 2006)
